Among the data in publication PMC11099142 are binding values, retold here.

Sequences of proteins named here, by UniProt entry; tags and fusion partners are left off. Residues count along the entry.
UniProt P08069, residues 31-1367: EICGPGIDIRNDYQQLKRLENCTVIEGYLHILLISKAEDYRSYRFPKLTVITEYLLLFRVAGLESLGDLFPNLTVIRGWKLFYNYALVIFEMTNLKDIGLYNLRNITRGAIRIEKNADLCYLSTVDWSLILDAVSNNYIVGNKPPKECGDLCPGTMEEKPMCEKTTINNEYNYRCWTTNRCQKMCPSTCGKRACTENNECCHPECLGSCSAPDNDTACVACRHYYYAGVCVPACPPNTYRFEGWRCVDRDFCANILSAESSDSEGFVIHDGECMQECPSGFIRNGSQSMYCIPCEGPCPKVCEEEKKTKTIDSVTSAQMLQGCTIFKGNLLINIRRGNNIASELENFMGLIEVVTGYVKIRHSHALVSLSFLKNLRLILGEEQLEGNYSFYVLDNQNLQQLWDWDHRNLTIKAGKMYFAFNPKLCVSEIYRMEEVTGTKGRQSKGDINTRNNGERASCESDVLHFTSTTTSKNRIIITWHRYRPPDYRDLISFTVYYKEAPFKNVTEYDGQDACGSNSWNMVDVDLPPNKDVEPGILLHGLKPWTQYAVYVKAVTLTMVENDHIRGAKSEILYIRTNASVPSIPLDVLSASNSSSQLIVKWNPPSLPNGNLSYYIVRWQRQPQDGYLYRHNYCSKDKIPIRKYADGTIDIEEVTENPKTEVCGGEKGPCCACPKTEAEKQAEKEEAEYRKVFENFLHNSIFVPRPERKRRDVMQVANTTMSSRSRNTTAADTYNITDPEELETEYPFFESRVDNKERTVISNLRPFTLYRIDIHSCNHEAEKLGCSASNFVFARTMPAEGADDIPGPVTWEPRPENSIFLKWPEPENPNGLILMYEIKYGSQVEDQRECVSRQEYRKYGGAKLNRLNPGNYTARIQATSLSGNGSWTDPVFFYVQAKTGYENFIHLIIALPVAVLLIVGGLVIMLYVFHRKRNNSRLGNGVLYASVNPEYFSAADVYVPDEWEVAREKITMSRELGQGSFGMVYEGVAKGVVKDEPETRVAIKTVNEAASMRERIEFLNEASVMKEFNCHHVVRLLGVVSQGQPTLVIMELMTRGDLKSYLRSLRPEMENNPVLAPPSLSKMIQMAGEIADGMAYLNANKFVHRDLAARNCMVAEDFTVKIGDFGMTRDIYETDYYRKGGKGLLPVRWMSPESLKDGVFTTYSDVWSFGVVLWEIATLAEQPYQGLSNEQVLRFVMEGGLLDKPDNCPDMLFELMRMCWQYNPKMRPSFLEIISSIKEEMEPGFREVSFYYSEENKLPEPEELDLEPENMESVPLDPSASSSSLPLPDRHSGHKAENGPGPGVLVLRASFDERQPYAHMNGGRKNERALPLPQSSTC

These are yes or no findings as the source states them, for the method shown. Binding seen in cells or lysates may run through a third protein. Some entries that bind do so weakly or less than the wild type.

Test [1] concerns the target Insulin-like Growth Factors 1 Receptor (IGF1R) (human (endogenous in TOV-112D)) (UniProt P08069). The experiment in a line: co-IP; TOV-112D parental (PT-sen) cells, not conditioned; lysates in HNTG buffer; protein A or G agarose; western blot. (In general: A western blot detects proteins with antibodies after separation by electrophoresis.)
For test [2] the target is unchanged. The experiment in a line: co-IP; TOV-112D PT-res ITGA6WT cell lysates (ITGA6KO cells as control) in HNTG buffer; protein A or G agarose; western blot.
Test [3] has the same target. The experiment in a line: co-IP; TOV-112D parental (PT-sen) cells incubated with conditioned medium of TOV-112D PT-res WT cells; lysates in HNTG buffer; western blot.

B1: Integrin α6 (ITGA6) (receptor, UniProt P23229 24-1130)
chain: FNLDTREDNVIRKYGDPGSLFGFSLAMHWQLQPEDKRLLLVGAPRAEALPLQRANRTGGLYSCDITARGPCTRIEFDNDADPTSESKEDQWMGVTVQSQGPGGKVVTCAHRYEKRQHVNTKQESRDIFGRCYVLSQNLRIEDDMDGGDWSFCDGRLRGHEKFGSCQQGVAATFTKDFHYIVFGAPGTYNWKGIVRVEQKNNTFFDMNIFEDGPYEVGGETEHDESLVPVPANSYLGLLFLTSVSYTDPDQFVYKTRPPREQPDTFPDVMMNSYLGFSLDSGKGIVSKDEITFVSGAPRANHSGAVVLLKRDMKSAHLLPEHIFDGEGLASSFGYDVAVVDLNKDGWQDIVIGAPQYFDRDGEVGGAVYVYMNQQGRWNNVKPIRLNGTKDSMFGIAVKNIGDINQDGYPDIAVGAPYDDLGKVFIYHGSANGINTKPTQVLKGISPYFGYSIAGNMDLDRNSYPDVAVGSLSDSVTIFRSRPVINIQKTITVTPNRIDLRQKTACGAPSGICLQVKSCFEYTANPAGYNPSISIVGTLEAEKERRKSGLSSRVQFRNQGSEPKYTQELTLKRQKQKVCMEETLWLQDNIRDKLRPIPITASVEIQEPSSRRRVNSLPEVLPILNSDEPKTAHIDVHFLKEGCGDDNVCNSNLKLEYKFCTREGNQDKFSYLPIQKGVPELVLKDQKDIALEITVTNSPSNPRNPTKDGDDAHEAKLIATFPDTLTYSAYRELRAFPEKQLSCVANQNGSQADCELGNPFKRNSNVTFYLVLSTTEVTFDTPDLDINLKLETTSNQDNLAPITAKAKVVIELLLSVSGVAKPSQVYFGGTVVGEQAMKSEDEVGSLIEYEFRVINLGKPLTNLGTATLNIQWPKEISNGKWLLYLVKVESKGLEKVTCEPQKEINSLNLTESHNSRKKREITEKQIDDNRKFSLFAERKYQTLNCSVNVNCVNIRCPLRGLDSKASLILRSRLWNSTFLEEYSKLNYLDILMRAFIDVTAAAENIRLPNAGTQVRVTVFPSKTVAQYSGVPWWIILVAILAGILMLALLVFILWKCGFFKRSRYDDSVPRYHAVRIRKEEREIKDEKYIDNLEKKQWITKWNENESYS
Regarding B1, the values for the binding entry in test [1], in test [2] and in test [3] were “binds weakly”, “binds” and “binds”, respectively.
